Laboratory results taken from PubChem BioAssay AID1159574 (Broad Institute, 2015).
This list was built around the results that the source calls inconclusive (neither active nor inactive); the mix of calls is not that of the screen. Activity calls are given as the source filed them.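 Rule for the calls: active = growth inhibitors whose fitted half-maximal dose is no more than twice the top valid dose; inconclusive = flat curve with 30 to 70% inhibition, or unreliable fit; inactive = the rest.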

assay: P. falciparum Dd2 blood-stage growth inhibition, dose response, SYBR Green fluorescence, erythrocytes, dry powder, set 2 (AID 1159574); details: P. falciparum Dd2 in erythrocytes, 72 h; at 19.5 µM (top of the series) unless noted

Activity change, negative = inhibition, inconclusive:
COc1cccc(C#Cc2ccc([C@@H]3[C@H]4CN(C(=O)Cc5ccccc5)CC(=O)N4[C@H]3CO)cc2)c1 -98.9%
COc1ccc(NC(=O)N2CCCCN3[C@H](CO)[C@@H](c4ccc(C#Cc5ccccc5)cc4)[C@@H]3C2)cc1 -81.3%
COc1ccc(S(=O)(=O)N(C)C[C@@H]2OCc3ccccc3-c3c(n(C)c4ccccc34)C(=O)N([C@H](C)CO)C[C@H]2C)cc1 -95.1%
COc1ccc(NC(=O)N2CCCCN3[C@@H](CO)[C@@H](c4ccc(C#Cc5ccccc5)cc4)[C@@H]3C2)cc1 -101%
COc1ccc(NC(=O)N2CCCCN3[C@H](C2)[C@H](c2ccc(C#Cc4ccccc4)cc2)[C@@H]3CO)cc1 -94%
COc1cccc(C#Cc2ccc([C@H]3[C@@H](CO)N4C(=O)CN(C(=O)Cc5ccccc5)C[C@@H]34)cc2)c1 -7.54% [at 5 µM]
COc1ccc(S(=O)(=O)N(C)C[C@H]2OCc3ccccc3-c3c(n(C)c4ccccc34)C(=O)N([C@H](C)CO)C[C@@H]2C)cc1 -37.9%
O=C(c1ccccc1F)N1CC(=O)N2[C@H](CO)[C@@H](c3ccc(-c4cccnc4)cc3)[C@@H]2C1 -57.6%
COc1cccc(C#Cc2ccc([C@@H]3[C@@H](CO)N4C(=O)CN(C(=O)Cc5ccccc5)C[C@H]34)cc2)c1 -63.9%
COc1cccc(C#Cc2ccc([C@H]3[C@H]4CN(C(=O)Cc5ccccc5)CC(=O)N4[C@H]3CO)cc2)c1 -103%
O=C(c1ccccc1F)N1CC(=O)N2[C@H](CO)[C@@H](c3ccc(-c4cccnc4)cc3)[C@H]2C1 -42.3%

Nothing new here: entries from further up.
Activity change, negative = inhibition, inconclusive:
COc1ccc(S(=O)(=O)N(C)C[C@H]2OCc3ccccc3-c3c(n(C)c4ccccc34)C(=O)N([C@H](C)CO)C[C@@H]2C)cc1 -37.9%
O=C(c1ccccc1F)N1CC(=O)N2[C@H](CO)[C@@H](c3ccc(-c4cccnc4)cc3)[C@@H]2C1 -57.6%

Following part:

Activity change, negative = inhibition, inactive:
O=C(c1ccccc1F)N1CC(=O)N2[C@@H](CO)[C@@H](c3ccc(-c4cccnc4)cc3)[C@@H]2C1 -19.7% [at 21 µM]
O=C(c1ccccc1F)N1CC(=O)N2[C@@H](CO)[C@H](c3ccc(-c4cccnc4)cc3)[C@@H]2C1 -41.3%
